In PubChem BioAssay AID1347075 (National Center for Advancing Translational Sciences (NCATS), 2019):
The whole screen tested about 400,000 compounds, of which about 5,500 (1.4%) were called active. This list was built around the results that the source calls inconclusive (neither active nor inactive); the mix of calls is not that of the screen. Calls follow the shape of the dose curve; as a rule, active = well fitted cell-killing curve with a large enough effect; inconclusive = small, poorly fitted or top-dose-only effect, or effect the other way; inactive = flat fitted curve, though single readings scatter. Where the call is inconclusive, the potency comes from a doubtful curve fit.

Assay: qHTS assay for MDR1-selective chemotherapeutics: Primary screen using the parental adenocarcinoma cell KB-3-1; also: nearly all actives have a fitted effect of over 60% in size
Settings: KB-3-1 viability, CellTiter-Glo ATP luminescence, 72 h; activity change, negative = cytotoxic: at 46.1 µM (top of the series)
In short: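 Parental KB-3-1 adenocarcinoma cells in phenol-red-free DMEM with 10% FBS were pin-treated with compounds at several concentrations, incubated 72 h at 37 °C, and viability read by CellTiter-Glo luminescence; concentration-effect curves were fitted after normalization.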
% is scaled to controls: 0 for no effect and ±100 for the full control effect; potency is read from the fitted curve at half-maximal effect.

For `CN(C)C(=O)c1cccc(-c2csc(N3CCC(C(N)=O)CC3)n2)c1`, which Potency is on record?
The Potency was “inactive”.

Which Potency does the source give for `Cc1cc(=O)[nH]c2nc(N)ccc12` here?
The Potency was inconclusive: 11.6 µM [rising, single point].

Which Potency does the source give for `COc1cc(OC)cc(-c2c(-c3cccs3)c3cc(-c4ccc(C(N)=O)cc4)ccc3n2C)c1` here?
The Potency was inconclusive: 18.4 µM [cytotoxic, single point].

With `COc1ccc(C(=O)NC23CC4CC(CC(C4)C2)C3)cc1OC` as the molecule, how does the Potency read?
Its Potency is inconclusive: 29.1 µM [cytotoxic, single point].

With `CCN(CC)CCCC(C)Nc1cc(/C=C/c2ccccc2Cl)nc2cc(Cl)ccc12` (stereo unspecified) as the molecule, how does the Potency read?
Its Potency is inconclusive: 2.59 µM [cytotoxic, full curve, poor fit].

With `Cc1cc(C)c2ccc(/C=N/O)nc2c1O` as the molecule, how does the Potency read?
The Potency was inconclusive: 25.9 µM [cytotoxic, single point].

Which Potency does the source give for `COc1cccc(N2CCN(c3ccc4nnc(CCC(=O)Nc5cccc(C(C)=O)c5)n4n3)CC2)c1` here?
Its Potency is inconclusive: 29.1 µM [rising, single point].

Which Potency does the source give for `CCCc1ccc(S(=O)(=O)N2CCN(C(=O)CN3C(=O)NC(C)(C4CC4)C3=O)CC2)cc1` (stereo unspecified) here?
Its Potency is “inactive”.

With `N#C/C(=C\c1ccc(OC(F)F)cc1)C(=O)N1CCCCC1` as the molecule, how does the Potency read?
Its Potency is “inactive”.

For `N#CCSc1nnc(COc2ccccc2)n1-c1ccccc1`, which Potency is on record?
Its Potency is “inactive”.

For `O=C(CN1CCCCCC1)NN(Cc1ccccc1)c1ccccc1`, which Potency is on record?
The Potency was “inactive”.

Which Potency does the source give for `COc1cc(CNC(C)c2ccccc2)cc(Br)c1OCc1ccccc1` (stereo unspecified) here?
Its Potency is inconclusive: 29.1 µM [cytotoxic, single point].

With `c1ccc2c(c1)OCC(c1csc3ncnc(N4CCCC4)c13)O2` (stereo unspecified) as the molecule, how does the Potency read?
The Potency was inconclusive: 16.4 µM [cytotoxic, single point].

For `O=C(C/C=N\OCc1ccc([N+](=O)[O-])cc1)Nc1ccc(Br)cc1`, which Potency is on record?
The Potency was inconclusive: 32.6 µM [rising, single point].

With `CC(=O)C12CCCCC1CC1[C@@H]3CC(C)C4=CC(=O)CC[C@]4(C)C3CC[C@@]12C` (stereo partly specified) as the molecule, how does the Potency read?
Its Potency is inconclusive: 29.1 µM [cytotoxic, single point].

With `COc1ccc(-n2nc(C(=O)NCC(=O)NCCc3ccc(OC)c(OC)c3)c3ccccc3c2=O)cc1Cl` as the molecule, how does the Potency read?
The Potency was inconclusive: 0.184 µM [cytotoxic, full curve].

Which Potency does the source give for `O=C(CN1C(=O)NC(c2ccccc2)(c2ccccc2)C1=O)Nc1ccc2[nH]c(=O)[nH]c2c1` here?
Its Potency is “inactive”.

With `Cc1ccc(S(=O)(=O)Nc2ccccc2-c2ccccc2NS(=O)(=O)c2ccc(C)cc2)cc1` as the molecule, how does the Potency read?
Its Potency is inconclusive: 25.9 µM [cytotoxic, single point].

With `Clc1ccc(C2CC(c3ccccc3)Nc3ncnn32)cc1` (stereo unspecified) as the molecule, how does the Potency read?
The Potency was inconclusive: 16.4 µM [cytotoxic, single point].

With `Cc1ccc(S(=O)(=O)c2c(COC(=O)c3ccc(Cl)cc3)c(-c3ccccc3)nn2C)cc1` as the molecule, how does the Potency read?
The Potency was inconclusive: 9.2 µM [cytotoxic, partial curve].

For `C(=N\N1CCN(Cc2cccc3ccccc23)CC1)/c1cccs1`, which Potency is on record?
Its Potency is “inactive”.

With `COC(=O)c1ccc(/C=C/c2c(-c3ccc(OC)cc3)sc3ccccc23)cc1` as the molecule, how does the Potency read?
Its Potency is inconclusive: 20.6 µM [cytotoxic, single point].

Which Potency does the source give for `NC(=O)c1c(NC(=O)C2CCCO2)sc2c1CCCC2` (stereo unspecified) here?
The Potency was “inactive”.

Which Potency does the source give for `O=C(CNC(=O)c1cccc(F)c1)N/N=C/c1cc(Br)ccc1OC(=O)/C=C/c1ccco1` here?
Its Potency is inconclusive: 25.9 µM [cytotoxic, partial curve, poor fit].

With `Cc1cc(NC(=O)COC(=O)c2cc([N+](=O)[O-])ccc2N2CCOCC2)ccc1Br` as the molecule, how does the Potency read?
Its Potency is inconclusive: 29.1 µM [cytotoxic, single point].

For `CCN1C(=O)C(=O)N(CC(=O)Nc2ccccc2Oc2ccccc2)C1=O`, which Potency is on record?
Its Potency is “inactive”.

With `O=C1C(Cc2ccccc2)Nc2ncnc(N3CCCCC3)c2N1Cc1ccccc1` (stereo unspecified) as the molecule, how does the Potency read?
The Potency was “inactive”.

With `Cc1ccsc1CNC(=O)C1(C)CCN1C(=O)C(C)C` (stereo unspecified) as the molecule, how does the Potency read?
Its Potency is “inactive”.

Which Potency does the source give for `CCCn1c(N)c(N(CCOC)C(=O)c2cccc(S(=O)(=O)N3CCCc4ccccc43)c2)c(=O)[nH]c1=O` here?
Its Potency is inconclusive: 29.1 µM [rising, single point].

For `CCOC(=O)C1(CCc2ccccc2)CCN(Cc2ccccn2)CC1`, which activity change, negative = cytotoxic is on record?
Its activity change, negative = cytotoxic is inconclusive: 37.9%.

Which Potency does the source give for `CCCCCc1ccc(-c2cn(Cc3ccc(C)cc3)nn2)cc1` here?
The Potency was inconclusive: 0.146 µM [rising, full curve].

With `CC(=O)N1CCc2cc(S(=O)(=O)CCC(=O)NCc3ccc(Cl)cc3)ccc21` as the molecule, how does the Potency read?
The Potency was inconclusive: 25.9 µM [cytotoxic, partial curve, poor fit].

With `CC(=O)N1c2ccc(S(=O)(=O)N3CCCC(C(=O)Nc4cccc(Cl)c4)C3)cc2CC1C` (stereo unspecified) as the molecule, how does the Potency read?
The Potency was inconclusive: 10.3 µM [cytotoxic, partial curve].

Which Potency does the source give for `C/C(=N/Nc1ccc([N+](=O)[O-])cc1)c1ccc(C)cc1C` here?
The Potency was inconclusive: 29.1 µM [cytotoxic, single point].

Which Potency does the source give for `CCc1nc(NCc2ccc3c(c2)OCO3)c2oc3ccccc3c2n1` here?
The Potency was inconclusive: 29.1 µM [cytotoxic, single point].

With `O=C(CCl)N1N=C(c2ccco2)CC1c1ccco1` (stereo unspecified) as the molecule, how does the activity change, negative = cytotoxic read?
Its activity change, negative = cytotoxic is inconclusive: -67.2%.

For `O=S(=O)(Nc1cccc(-c2ccc(N3CCCCCC3)nn2)c1)c1cccc(F)c1`, which Potency is on record?
The Potency was inconclusive: 14.6 µM [cytotoxic, partial curve].

For `COC(=O)CCCCCNc1ccc(C(=O)OC)cc1N`, which Potency is on record?
Its Potency is “inactive”.

Which Potency does the source give for `COc1ccc(CC(N)c2csc(NC(=O)c3cccc(OC(F)(F)F)c3)n2)cc1` (stereo unspecified) here?
Its Potency is inconclusive: 18.4 µM [cytotoxic, single point].

Which Potency does the source give for `CC(=O)N1/C(=C/c2ccc(N(C)C)cc2)C(=O)c2ccccc21` here?
Its Potency is inconclusive: 20.6 µM [cytotoxic, partial curve, poor fit].

For `COc1cc(C)c(C)cc1S(=O)(=O)Nc1cccc(-c2ccc(N3CCOCC3)nn2)c1`, which Potency is on record?
The Potency was inconclusive: 14.6 µM [cytotoxic, partial curve, poor fit].

With `O=C(Cc1cccc(NC(=O)C2CCCN(C(=O)c3ccccc3)C2)c1)Nc1cccc(C(=O)N2CCCCC2)c1` (stereo unspecified) as the molecule, how does the Potency read?
Its Potency is “inactive”.

Which Potency does the source give for `Cc1cccc(NC(=O)Cn2cnc3c(oc4ccccc43)c2=O)c1` here?
Its Potency is inconclusive: 14.6 µM [rising, partial curve, poor fit].

With `C=CCN1c2ccccc2[C@]23C[C@@H](C(=O)OC)N(C(=O)c4ccc(Br)cc4)C2=NC(C(=O)OC)=C(C(=O)OC)[C@H]13` as the molecule, how does the Potency read?
Its Potency is inconclusive: 29.1 µM [cytotoxic, single point].

Which Potency does the source give for `N#Cc1c(C(F)(F)F)cc(-c2ccccc2Cl)[nH]c1=O` here?
Its Potency is inconclusive: 25.9 µM [cytotoxic, single point].

Which Potency does the source give for `CC(=O)N1CCSc2ccc(S(=O)(=O)Nc3ccccc3C)cc21` here?
The Potency was inconclusive: 1.64 µM [cytotoxic, partial curve, poor fit].

For `COCCn1c(=N)c(C(=O)NC(C)c2ccccc2)cc2c(=O)n3cc(C)ccc3nc21` (stereo unspecified), which Potency is on record?
The Potency was “inactive”.

With `Fc1cccc(-c2cc3nc(-c4ccccc4)cc(N4CCC5(CC4)OCCO5)n3n2)c1` as the molecule, how does the Potency read?
Its Potency is “inactive”.

For `COc1ccc(CSc2ccc(-c3nc4ccccn4c3NCc3ccccc3)cc2OC)cc1`, which Potency is on record?
Its Potency is inconclusive: 18.4 µM [cytotoxic, single point].

For `CC(=O)n1nc(-c2ccncc2)nc1SCC(=O)Nc1cccc(Cl)c1`, which Potency is on record?
The Potency was “inactive”.

For `Cc1ccc(-c2nc(C3CCCN(S(=O)(=O)c4ccc(C)cc4)C3)no2)cc1` (stereo unspecified), which Potency is on record?
The Potency was inconclusive: 20.6 µM [cytotoxic, single point].

Which Potency does the source give for `COC(=O)C1(c2ccccc2)NC(c2ccc(O)cc2)C2C(=O)N(c3ccc4c(c3)OCO4)C(=O)C21` (stereo unspecified) here?
The Potency was “inactive”.

For `CCCOc1ccc(NC(=O)CC2C(=O)N(C)C(=S)N2Cc2ccc3c(c2)OCO3)cc1` (stereo unspecified), which Potency is on record?
The Potency was active: 18.4 µM.

Which Potency does the source give for `Cc1cccc(NC(=O)c2ccc(S(=O)(=O)NCc3cccnc3)cc2)c1` here?
Its Potency is inconclusive: 13 µM [cytotoxic, partial curve].

With `O=C1NC(Cc2ccc(O)cc2)c2nc3cc(F)ccc3c(=O)n2-c2cc3ccccc3cc21` (stereo unspecified) as the molecule, how does the Potency read?
The Potency was active: 14.6 µM.

Which Potency does the source give for `CNc1ccc(Br)cc(C(=O)/C=C/c2ccc(Cl)cc2Cl)c1=O` here?
The Potency was inconclusive: 29.1 µM [cytotoxic, single point].

With `O=C(CC1COc2ccccc2O1)NCc1ccccc1` (stereo unspecified) as the molecule, how does the Potency read?
Its Potency is inconclusive: 14.6 µM [cytotoxic, partial curve, poor fit].

With `COC(=O)[C@@]1(Cc2ccc(F)cc2)[C@H]2c3cc(C(=O)N(C)C)n(C)c3C[C@H]2CN1C(=O)c1ccccc1` as the molecule, how does the Potency read?
Its Potency is “inactive”.

For `CCOC(=O)N/N=C/c1cn(Cc2ccccc2Cl)c2ccccc12`, which Potency is on record?
The Potency was inconclusive: 29.1 µM [cytotoxic, single point].

With `COc1cc(-c2ccc(Nc3ccccc3C(=O)O)c(OC)c2)ccc1Nc1ccccc1C(=O)O` as the molecule, how does the Potency read?
The Potency was inconclusive: 16.4 µM [cytotoxic, partial curve, poor fit].

Which Potency does the source give for `Fc1ccc(C2CCNCC2COc2ccc3c(c2)OCO3)cc1` (stereo unspecified) here?
Its Potency is inconclusive: 20.6 µM [cytotoxic, single point].

For `N#Cc1ccccc1OCC(=O)C1CC1`, which Potency is on record?
Its Potency is “inactive”.

Which Potency does the source give for `O=C(CSCC(=O)N1CCCCC1)Nc1nc(-c2ccc(Cl)s2)cs1` here?
The Potency was “inactive”.

Which Potency does the source give for `CC[C@]1(O)C[C@H]2CN(CCc3c([nH]c4ccccc34)[C@@](C(=O)OC)(c3cc4c(cc3OC)N(C=O)[C@H]3[C@@](O)(C(=O)OC)[C@H](OC(C)=O)[C@]5(CC)C=CCN6CC[C@]43[C@@H]65)C2)C1` here?
The Potency was active: 0.116 µM.

For `Cc1ccccc1C(=O)NC(=S)Nc1ccc(S(=O)(=O)N(C)c2ccccc2)cc1`, which Potency is on record?
The Potency was inconclusive: 23.1 µM [cytotoxic, partial curve, poor fit].

Which Potency does the source give for `CC(=O)n1cc(/C=N/NC(=O)c2ccccc2O)c2ccccc21` here?
The Potency was “inactive”.
